Results from paper PMC10795994.
No constants are given. Whether binding was seen depends on the method and setting. Some binding calls cover weakened binding; strength is not graded here. Where a sequence is shown, tags or fusion partners need not be part of it. One block for each binder: values may come before it.

How the values were obtained:
Experiment in all cases: two-hybrid; Matchmaker Gold system; bait fused to Gal4-BD (pGBKT7, Y2H Gold cells), prey fused to Gal4-AD (pGADT7, Y187 cells), mated; reporters ADE2 (-Ade -Leu -Trp) and MEL1 (-Leu -Trp +X-α-gal)
[1] = molecular target: T1, Phf2 (yeast two-hybrid fusion) (S. pombe) (UniProt Q09908)
T1 sequence: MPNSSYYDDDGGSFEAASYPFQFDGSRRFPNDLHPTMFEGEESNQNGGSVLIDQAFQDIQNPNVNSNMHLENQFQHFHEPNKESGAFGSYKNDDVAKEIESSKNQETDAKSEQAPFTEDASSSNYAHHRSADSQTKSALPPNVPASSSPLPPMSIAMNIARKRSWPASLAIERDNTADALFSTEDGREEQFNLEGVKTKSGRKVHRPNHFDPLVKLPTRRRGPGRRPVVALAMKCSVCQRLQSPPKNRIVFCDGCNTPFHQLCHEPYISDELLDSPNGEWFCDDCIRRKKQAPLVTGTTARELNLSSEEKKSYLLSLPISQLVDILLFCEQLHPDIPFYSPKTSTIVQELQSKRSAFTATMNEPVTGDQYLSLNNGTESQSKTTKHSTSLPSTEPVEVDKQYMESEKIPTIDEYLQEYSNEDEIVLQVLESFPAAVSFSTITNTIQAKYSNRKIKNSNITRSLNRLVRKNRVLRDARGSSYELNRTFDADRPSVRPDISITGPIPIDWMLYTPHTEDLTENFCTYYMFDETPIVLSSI

[2] = molecular target: T2, Lsd1 (yeast two-hybrid fusion) (S. pombe) (UniProt Q9Y802)
T2 sequence: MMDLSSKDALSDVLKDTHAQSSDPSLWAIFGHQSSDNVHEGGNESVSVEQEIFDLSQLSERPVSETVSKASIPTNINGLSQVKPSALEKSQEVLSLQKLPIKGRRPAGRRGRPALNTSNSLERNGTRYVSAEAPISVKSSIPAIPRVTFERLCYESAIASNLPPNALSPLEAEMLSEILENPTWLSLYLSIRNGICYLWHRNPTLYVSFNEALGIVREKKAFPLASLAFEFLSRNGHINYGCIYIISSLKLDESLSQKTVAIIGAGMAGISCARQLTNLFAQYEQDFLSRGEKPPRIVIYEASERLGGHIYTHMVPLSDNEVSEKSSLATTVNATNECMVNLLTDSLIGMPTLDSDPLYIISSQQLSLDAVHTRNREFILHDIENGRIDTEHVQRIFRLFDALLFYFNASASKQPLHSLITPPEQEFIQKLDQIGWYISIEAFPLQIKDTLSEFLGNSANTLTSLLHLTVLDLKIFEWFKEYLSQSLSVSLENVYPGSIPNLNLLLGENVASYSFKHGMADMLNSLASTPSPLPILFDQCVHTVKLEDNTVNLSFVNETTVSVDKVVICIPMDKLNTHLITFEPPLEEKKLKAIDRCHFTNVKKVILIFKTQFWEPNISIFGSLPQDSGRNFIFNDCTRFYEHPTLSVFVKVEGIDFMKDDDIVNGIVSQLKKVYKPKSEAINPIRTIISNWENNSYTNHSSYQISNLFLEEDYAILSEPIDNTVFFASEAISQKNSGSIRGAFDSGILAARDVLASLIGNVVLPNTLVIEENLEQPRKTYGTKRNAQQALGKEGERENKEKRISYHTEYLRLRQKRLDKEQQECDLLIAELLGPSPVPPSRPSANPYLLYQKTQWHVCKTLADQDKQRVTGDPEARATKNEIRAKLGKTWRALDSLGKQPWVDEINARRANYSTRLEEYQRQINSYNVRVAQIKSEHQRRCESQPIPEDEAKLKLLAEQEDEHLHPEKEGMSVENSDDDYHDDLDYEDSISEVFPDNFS

[3] = molecular target: T3, Lsd1 (yeast two-hybrid fusion) (S. pombe), Q9Y802; conditions: remark: other sources report otherwise
T3 chain: T2 sequence

- binding [1]: binds
- binding [2]: binds
B1: Phf1 (yeast two-hybrid fusion) (protein, UniProt P87233 1-461)
chain: MSQKNFFDEGKSYGVNDYAGFHFENGADSSLPQVSAQGVVRETDSSNFDASPVASGSGISDVGPFGADFHQLQQHVQTPYGGMTMPASSSSGATSVPPEQDPSLSVSFNRLPKSASTKTKNGRIRSSRREDDNRIPFYDLDVAEGAEDDLQEDFHVEGMKTKSGRKIQRPVAYNPNATALKRKSRKVDMVTLCSVCQRGHSPLSNRIVFCDGCNSPYHQLCHHPPIDDATVQDVDAEWFCMKCQYRRAKQPLETGMTAQDLGLSESDKKMYLSSLPTPHLADLILFCEKSYPSLPIYNPRTRELLGEIRHQLLVSSERQQISLQERLHAKQDEAPSDEPAPVPYTASYVANSGTLYDYPTLIRLAIRNTLSPSKDEIFNWLAQNVPLLPTFHDSASEAIRWMVNKGQLVRSGSIYQIATVEEYPHLQPSLLPTFQRNRKVPKLVPVSFPTDDPQNLCATVL

- binding [3]: no binding
B2: Lsd2 (yeast two-hybrid fusion), Q10135 1-1235 (enzyme)
chain: MNTSENDPDGHYDFPEMTEHHSDRASSYANANNVNSTQPQLVSSEQALLAILGGGLQSITPNSVNQNAYSRSTYRTDGGLNSQPVSSLNNQWGNYNPAFLPSRYDSSFHPYTISQAANQPFPQHLLGNSNAGVAQQSGMRTIGLPPTVGSSFPQQKSSTYENFFDANSPSSQQFPSTYPSRSQNPLSSSGDGSTAIHAGPIQHQNSNAFSNYPYPLDASHLSSQQLLSMYRDQVSHGVTPSTFRNHESFMPTQLVSATELSKSVDNAVLPIPPTTAPAVVSPPASSFPLMSSAATSGNISSPALFDSELGARPEGSVAIEPSRVLLQWSSQSSSHTIPSAGASIPTSSLKSFFEHAAEAARKCNLDPRALESFEQHMLSDRLHDPVVLFHYFQIRNSICWLWIKNPTHAISRVEAQGVCVDRCLFQLASLAYEFLVRYGYINYGCLSFDSSFTNETNTGTTSSSASKQKTIAVVGAGLTGLICARQLTGLFSQYSSSFLSKNELPPKVIILEAKERTGGRIYSRALPVSHTSATQINHHTSNSNSISSNSTSLNPKDVTDPSHIPSAIDLGFQFLFSPMDDILLNLLNKQLGIEVTEMTGSDLVYDETDTKVLDMVEVKKLNILWEKLLEYVSVCFFINVEESVRISWISQFQLFIDEMFPDHLSKSLSLNASHEFSFKKTMLILIDEVSSYAKLGNSQKKFLIWCFKVAELDDTLYPLNTVDTDFSKDILIPKVARRGLSQLPWALQSYPSPLNIHYEKFVSKVTIENDKCTLDCKDNSSYEVDQVVIACSPSHFSSNIEFSPGLPNFVTENIKSIDFKPGKKVILRYAAAFWRKNIRSFGIIPKSLSQEMNNDENDGKSCFVLRIWNMLPETGVPILVADINPQMTSSSSNETSHLIQELHSLIVDHFQNDSNSSADLLDAWVTNWSRNGVYDGLNSYPNFANDKQQYEKRFRQSQLSYNLGRLHIAGDYIFSCVGCRTLQRSFLSGLSVCTGIIDSLAPISLTIPIIGETSRKELDQFLRNSKVNNFDPNAEAQRHLSYQARYRLKKQERLDEHKEEQEQLVTELLGYLPEPPSKPNANPFLLYQKMQWHVCRALADEDKRRLTGDSTAKATINETRAKLGKTWRQLDDLGKKPWIDEIAAQREAYAGKILRYQRLTKEYEMRAEQIRNDYAAKCQDEPIPDDEARLFMQAQREEEQRKQTQDDNISKSREASDEEYHDDGSSDSGYNGTRY
